The source of these data is paper PMC8444549.

Chains of the proteins cited; added tags and fusions are not shown. Lines headed by an entry give the natural chain unless they say otherwise; changes in a name come on top. Residues count along the entry.
UniProt P01127, residues 82-190: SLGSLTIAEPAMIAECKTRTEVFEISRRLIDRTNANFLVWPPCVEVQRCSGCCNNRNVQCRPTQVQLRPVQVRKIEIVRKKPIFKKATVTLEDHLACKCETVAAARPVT
UniProt P27701: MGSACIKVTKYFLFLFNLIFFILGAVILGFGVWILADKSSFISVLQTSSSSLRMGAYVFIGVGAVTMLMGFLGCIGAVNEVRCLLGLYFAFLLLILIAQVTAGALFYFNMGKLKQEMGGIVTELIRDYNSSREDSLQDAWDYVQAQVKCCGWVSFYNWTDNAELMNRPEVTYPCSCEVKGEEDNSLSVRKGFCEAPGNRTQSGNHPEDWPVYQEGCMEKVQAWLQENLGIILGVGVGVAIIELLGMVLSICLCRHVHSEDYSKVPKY

Results are given in words; binding and its absence hold for the method and conditions named. For some assays here: Binding can be weak; no strength is given. For some assays here: In cells and extracts the contact can be indirect. For some assays here: Where a sequence is shown, tags or fusion partners need not be part of it.

Test [1] concerns the target recombinant human PDGF-BB (human) (UniProt P01127). Nature of the test: BLI; BLItz instrument (ForteBio), real-time binding, shift in nm; the legends call it surface plasmon resonance (BLItz system); who was immobilised is not stated; both purified. For orientation: In BLI a coated tip is dipped into the sample, and binding shifts an interference pattern.
Test [2] addresses recombinant human VEGF-A (human). Nature of the test: co-IP; 293T cell lysates in IP buffer, anti-VEGF-A or anti-PDGF-BB antibody overnight at 4 °C, protein A/G sepharose, western blot; legend names rhVEGF-A and rhPDGF-BB; only the target purified. In general terms: A western blot detects proteins with antibodies after separation by electrophoresis.
Test [3] shares this target. Nature of the test: condition: only cells treated with 2-bp (inhibitor of palmitoylation); co-IP; as a3, 293T cells treated with 2-bp (inhibition of palmitoylation); only the target purified.
For test [4] the target is unchanged. Nature of the test: BLI; BLItz instrument (ForteBio), real-time binding, shift in nm; the legends call it surface plasmon resonance (BLItz system); who was immobilised is not stated; both purified.

“recombinant human KAI1 (from UniProt P27701)”: in test [1], the binding entry was “binds”.

B1: KAI1-Myc (protein, UniProt P40237 1-266)
chain: MGAGCVKVTKYFLFLFNLLFFILGAVILGFGVWILADKNSFISVLQTSSSSLQVGAYVFIGVGAITIVMGFLGCIGAVNEVRCLLGLYFVFLLLILIAQVTVGVLFYFNADKLKKEMGNTVMDIIRNYTANATSSREEAWDYVQAQVKCCGWVSHYNWTENEELMGFTKTTYPCSCEKIKEEDNQLIVKKGFCEADNSTVSENNPEDWPVNTEGCMEKAQAWLQENFGILLGVCAGVAVIELLGLFLSICLCRYIHSEDYSKVPKY
In the case of B1, the binding result is reported as “binds” in test [2] and “no binding” in test [3].

For the molecule NRPEVTAPASCEVKGAAANS [KAI1 peptide, mutant sequence], the binding entry in test [4] is “no binding”.

Take NRPEVTYPCSCEVKGEEDNS [KAI1 peptide, wild-type sequence]: the binding entry in test [4] is “binds”.
